Source: article PMC6192633
Results are given in words; binding and its absence hold for the method and conditions named. In cells and extracts the contact can be indirect. Binding calls can cover weak binding; strength is not graded here. For some of these results: Tags and fused reporters may be left off the sequences shown.

By UniProt entry, the sequences of proteins in these tests, tags left out. Where a name states a change or a piece, a line headed by the entry shows the natural chain unless it says otherwise. Residues count along the entry.
UniProt Q9QUK6, residues 26-835: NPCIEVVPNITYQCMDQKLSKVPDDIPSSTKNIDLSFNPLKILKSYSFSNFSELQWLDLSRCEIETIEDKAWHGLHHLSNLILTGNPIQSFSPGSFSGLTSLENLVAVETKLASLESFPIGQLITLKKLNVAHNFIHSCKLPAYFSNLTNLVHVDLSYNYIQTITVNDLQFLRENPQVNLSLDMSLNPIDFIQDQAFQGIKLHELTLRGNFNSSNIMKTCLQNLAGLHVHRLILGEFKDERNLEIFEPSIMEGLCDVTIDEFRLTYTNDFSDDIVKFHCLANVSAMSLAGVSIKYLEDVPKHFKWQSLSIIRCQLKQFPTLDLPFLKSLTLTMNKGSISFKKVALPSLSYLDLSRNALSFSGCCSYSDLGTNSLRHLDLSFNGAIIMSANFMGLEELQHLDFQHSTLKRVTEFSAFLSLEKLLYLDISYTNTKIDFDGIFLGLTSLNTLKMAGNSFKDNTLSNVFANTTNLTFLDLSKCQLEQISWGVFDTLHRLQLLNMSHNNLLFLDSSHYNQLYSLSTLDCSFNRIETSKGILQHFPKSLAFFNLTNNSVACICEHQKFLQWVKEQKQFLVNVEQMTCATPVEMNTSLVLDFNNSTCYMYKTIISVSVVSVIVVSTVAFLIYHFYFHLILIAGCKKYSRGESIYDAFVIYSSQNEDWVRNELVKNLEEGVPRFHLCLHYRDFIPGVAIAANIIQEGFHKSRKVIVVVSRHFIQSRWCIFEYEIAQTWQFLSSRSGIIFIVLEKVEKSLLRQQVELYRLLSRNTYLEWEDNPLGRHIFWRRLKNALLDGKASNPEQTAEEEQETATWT
UniProt Q9NR96, residues 26-1032: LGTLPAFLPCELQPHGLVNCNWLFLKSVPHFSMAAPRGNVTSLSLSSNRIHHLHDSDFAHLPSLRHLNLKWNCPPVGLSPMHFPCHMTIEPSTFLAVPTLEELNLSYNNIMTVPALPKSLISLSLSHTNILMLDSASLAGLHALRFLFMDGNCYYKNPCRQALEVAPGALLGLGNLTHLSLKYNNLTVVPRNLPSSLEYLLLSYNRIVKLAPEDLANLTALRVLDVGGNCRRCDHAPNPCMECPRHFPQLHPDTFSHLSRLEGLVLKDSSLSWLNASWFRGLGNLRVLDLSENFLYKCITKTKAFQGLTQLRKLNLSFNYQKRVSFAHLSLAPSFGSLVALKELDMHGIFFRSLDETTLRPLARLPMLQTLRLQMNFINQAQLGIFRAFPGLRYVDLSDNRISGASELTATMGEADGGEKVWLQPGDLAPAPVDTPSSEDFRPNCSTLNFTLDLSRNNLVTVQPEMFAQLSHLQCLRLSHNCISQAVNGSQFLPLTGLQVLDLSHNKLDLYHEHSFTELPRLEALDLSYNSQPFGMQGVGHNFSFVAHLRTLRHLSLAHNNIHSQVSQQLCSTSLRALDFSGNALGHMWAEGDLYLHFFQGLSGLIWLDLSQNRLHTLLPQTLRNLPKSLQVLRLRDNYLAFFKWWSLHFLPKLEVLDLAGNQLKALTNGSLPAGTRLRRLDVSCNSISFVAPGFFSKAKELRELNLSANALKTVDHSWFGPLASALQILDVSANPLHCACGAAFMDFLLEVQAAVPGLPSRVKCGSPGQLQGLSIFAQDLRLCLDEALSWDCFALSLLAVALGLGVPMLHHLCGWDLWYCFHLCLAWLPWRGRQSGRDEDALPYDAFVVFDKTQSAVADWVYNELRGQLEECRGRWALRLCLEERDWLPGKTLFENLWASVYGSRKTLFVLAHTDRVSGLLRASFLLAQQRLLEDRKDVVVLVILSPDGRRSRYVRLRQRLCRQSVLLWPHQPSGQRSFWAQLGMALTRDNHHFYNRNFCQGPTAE
UniProt Q91WD0: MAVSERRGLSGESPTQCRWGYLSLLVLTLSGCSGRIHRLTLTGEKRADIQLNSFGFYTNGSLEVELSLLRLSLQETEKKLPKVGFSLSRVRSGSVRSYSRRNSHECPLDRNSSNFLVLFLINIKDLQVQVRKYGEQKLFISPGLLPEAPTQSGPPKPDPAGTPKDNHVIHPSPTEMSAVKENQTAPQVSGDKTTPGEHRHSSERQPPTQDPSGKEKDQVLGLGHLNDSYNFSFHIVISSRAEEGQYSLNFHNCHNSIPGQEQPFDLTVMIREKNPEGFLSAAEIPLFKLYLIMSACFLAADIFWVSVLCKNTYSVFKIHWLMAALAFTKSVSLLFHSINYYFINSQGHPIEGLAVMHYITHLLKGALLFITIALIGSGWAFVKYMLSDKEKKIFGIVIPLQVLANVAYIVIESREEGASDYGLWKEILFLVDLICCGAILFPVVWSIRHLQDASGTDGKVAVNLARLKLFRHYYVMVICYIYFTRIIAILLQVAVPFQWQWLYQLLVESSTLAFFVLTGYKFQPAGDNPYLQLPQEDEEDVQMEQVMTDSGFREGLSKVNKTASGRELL

Legend:
Assay in all cases: co-IP; HEK293 or HEK293T cells co-transfected with Flag- and HA-tagged proteins; lysis buffer 10 mM Tris pH 7.4, 100 mM NaCl, 1 mM EDTA, 1 mM EGTA, 1% Triton X-100, 10% glycerol, 0.1% SDS, 0.5% deoxycholate; anti-flag M2 agarose 2 h at 4°C; blots with anti-HA and anti-Flag (Fig 6A: cells stimulated with LPS for different times, with or without GPR108, blot with anti-MyD88)
Flag-tagged TLR4 (mouse) = Flag-tagged TLR4 (mouse) (UniProt Q9QUK6)
Flag-tagged TLR9 = Flag-tagged TLR9 (UniProt Q9NR96)
Flag-tagged TLR7 (mouse) = target: T1, Flag-tagged TLR7 (mouse) (UniProt P58681)
T1 sequence: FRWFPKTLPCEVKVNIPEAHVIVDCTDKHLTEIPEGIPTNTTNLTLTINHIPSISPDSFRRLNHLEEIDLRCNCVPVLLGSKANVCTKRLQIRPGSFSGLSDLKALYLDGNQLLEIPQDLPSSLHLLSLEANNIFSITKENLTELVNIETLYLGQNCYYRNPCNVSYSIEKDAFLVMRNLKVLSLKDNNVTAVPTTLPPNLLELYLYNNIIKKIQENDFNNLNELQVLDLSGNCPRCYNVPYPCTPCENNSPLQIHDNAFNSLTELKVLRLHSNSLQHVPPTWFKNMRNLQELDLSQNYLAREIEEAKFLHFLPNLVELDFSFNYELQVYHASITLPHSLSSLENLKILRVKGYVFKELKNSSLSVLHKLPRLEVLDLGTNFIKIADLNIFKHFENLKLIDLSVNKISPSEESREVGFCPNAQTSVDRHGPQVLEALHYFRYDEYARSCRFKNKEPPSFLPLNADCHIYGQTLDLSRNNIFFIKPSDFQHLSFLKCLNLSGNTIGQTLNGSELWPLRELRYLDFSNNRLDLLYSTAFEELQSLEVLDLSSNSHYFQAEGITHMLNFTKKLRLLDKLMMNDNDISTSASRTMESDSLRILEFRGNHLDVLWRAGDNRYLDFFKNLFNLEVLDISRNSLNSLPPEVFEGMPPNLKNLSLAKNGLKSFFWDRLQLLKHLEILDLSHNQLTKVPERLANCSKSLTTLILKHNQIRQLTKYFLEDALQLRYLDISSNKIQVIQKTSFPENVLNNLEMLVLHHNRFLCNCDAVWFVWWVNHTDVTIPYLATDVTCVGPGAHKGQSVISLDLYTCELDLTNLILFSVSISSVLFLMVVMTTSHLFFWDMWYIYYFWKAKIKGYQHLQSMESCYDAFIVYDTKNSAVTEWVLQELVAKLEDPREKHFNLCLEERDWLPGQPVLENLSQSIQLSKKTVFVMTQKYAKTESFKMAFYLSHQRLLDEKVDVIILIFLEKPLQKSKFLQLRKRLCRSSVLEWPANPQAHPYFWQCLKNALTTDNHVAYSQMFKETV

Flag-tagged TLR3 (mouse) = target: T2, Flag-tagged TLR3 (mouse) (UniProt Q99MB1)
T2 sequence: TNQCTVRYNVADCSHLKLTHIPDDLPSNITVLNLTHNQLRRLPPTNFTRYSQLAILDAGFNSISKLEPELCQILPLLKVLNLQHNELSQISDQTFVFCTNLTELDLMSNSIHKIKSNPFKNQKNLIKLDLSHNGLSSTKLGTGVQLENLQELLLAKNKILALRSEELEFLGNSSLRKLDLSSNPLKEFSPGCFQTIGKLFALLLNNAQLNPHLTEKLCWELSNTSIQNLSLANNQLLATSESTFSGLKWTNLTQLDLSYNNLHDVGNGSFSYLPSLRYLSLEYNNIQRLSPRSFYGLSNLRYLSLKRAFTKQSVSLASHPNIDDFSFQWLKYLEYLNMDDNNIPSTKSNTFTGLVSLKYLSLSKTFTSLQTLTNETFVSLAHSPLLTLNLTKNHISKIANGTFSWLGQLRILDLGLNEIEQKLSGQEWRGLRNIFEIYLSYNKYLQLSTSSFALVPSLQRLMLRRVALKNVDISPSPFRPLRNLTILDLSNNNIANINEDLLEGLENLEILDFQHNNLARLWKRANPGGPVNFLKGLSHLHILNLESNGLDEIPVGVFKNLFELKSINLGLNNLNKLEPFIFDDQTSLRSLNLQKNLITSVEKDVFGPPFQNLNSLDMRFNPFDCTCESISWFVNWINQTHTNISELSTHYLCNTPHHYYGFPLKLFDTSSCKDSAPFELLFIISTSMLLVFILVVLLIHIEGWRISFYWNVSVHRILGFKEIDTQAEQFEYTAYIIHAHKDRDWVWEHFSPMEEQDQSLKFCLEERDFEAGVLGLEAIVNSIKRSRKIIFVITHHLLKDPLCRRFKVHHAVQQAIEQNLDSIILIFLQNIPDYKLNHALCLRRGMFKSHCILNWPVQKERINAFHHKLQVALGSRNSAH

Measured: binding

GPR108 mutant m2-HA (from UniProt Q91WD0)
binds: all assays above
